Test results as given in ChEMBL document CHEMBL4303122, “Identification of potential treatments for COVID-19 through artificial intelligence-enabled phenomic analysis of human cells infected with SARS-CoV-2” (2020).
Over roughly 1,600 compounds, “Hit score” has its median near 0.13; the highest 2% begin near 0.46. The list shows a part of the results.

System: SARS-CoV-2
Test: Antiviral activity against SARS-CoV-2 (USA-WA1/2020 strain) measured by imaging in HRCE cells at MOI 0.4 after 96 hrs (reported as hit score from 0-1 for on-disease vs off-disease activity: scores >0.6 considered hits)
Type: functional, Homo sapiens

SMILES	Hit score
N[C@@H](CSCCCO)C(=O)O [FUDOSTEINE]	0.1737
CC(C)(C)NC(=O)[C@@H]1CN(Cc2cccnc2)CCN1C[C@@H](O)C[C@@H](Cc1ccccc1)C(=O)N[C@H]1c2ccccc2C[C@H]1O.O	0.1733
COc1ccc(C(CN(C)C)C2(O)CCCCC2)cc1 (stereo not given) [VENLAFAXINE]	0.1052
CC1COc2c(N3CCN(C)CC3)c(F)cc3c(=O)c(C(=O)O)cn1c23 (stereo not given) [OFLOXACIN]	0.08432
C[C@H]1O[C@@H](O[C@H]2[C@@H](O)C[C@H](O[C@H]3[C@@H](O)C[C@H](O[C@H]4CC[C@@]5(C)[C@H](CC[C@@H]6[C@@H]5C[C@@H](O)[C@]5(C)[C@@H](C7=CC(=O)OC7)CC[C@]65O)C4)O[C@@H]3C)O[C@@H]2C)C[C@H](O)[C@@H]1O [DIGOXIN]	0.06169
CN1CCN(c2cc3c(cc2F)c(=O)c(C(=O)O)cn3-c2ccc(F)cc2)CC1 [DIFLOXACIN]	0.0587
CCCC(=O)OCOC(=O)C1=C(C)NC(C)=C(C(=O)OC)C1c1cccc(Cl)c1Cl (stereo not given) [CLEVIDIPINE]	0.1396
NC(CO)C(=O)NNCc1ccc(O)c(O)c1O (stereo not given) [BENSERAZIDE]	0.1106
CN(C)CCCN1c2ccccc2CCc2ccccc21 [IMIPRAMINE]	0.1243
Nc1nc(O)c2ncn(CCC(CO)CO)c2n1 [PENCICLOVIR]	0.1329
Fc1ccc([C@@H]2CCNC[C@H]2COc2ccc3c(c2)OCO3)cc1 [PAROXETINE]	0.0967
CN(C/C=C/C#CC(C)(C)C)Cc1cccc2ccccc12 [TERBINAFINE]	0.2015
O=c1[nH]cnc2c1ncn2[C@H]1CC[C@@H](CO)O1 [DIDANOSINE]	0.1328
CN(C)C(=O)Oc1cccc([N+](C)(C)C)c1 [NEOSTIGMINE]	0.1096
CCOC(=O)[C@H](CCc1ccccc1)N[C@@H](C)C(=O)N1Cc2cc(OC)c(OC)cc2C[C@H]1C(=O)O [MOEXIPRIL]	0.07718
CN1CCC(OC(c2ccccc2)c2ccccc2)CC1	0.2582
COc1cc(/C=C/C(=O)CC(=O)/C=C/c2ccc(O)c(OC)c2)ccc1O [CURCUMIN]	0.2205
O=C1NCCN1CCN1CCC(c2cn(-c3ccc(F)cc3)c3ccc(Cl)cc23)CC1 [SERTINDOLE]	0.05774
O=C1CCC(N2C(=O)c3ccccc3C2=O)C(=O)N1 (stereo not given) [THALIDOMIDE]	0.1381
CCCCc1nc(Cl)c(CO)n1Cc1ccc(-c2ccccc2-c2nnn[nH]2)cc1 [LOSARTAN]	0.0016
Clc1ccc(C(Cn2ccnc2)OCc2csc3c(Cl)cccc23)c(Cl)c1 (stereo not given) [SERTACONAZOLE]	0.03803
COC(=O)c1csc(C(=O)c2c[nH]c3ccccc23)n1	0.2485
Cc1nc2n(c(=O)c1CCN1CCC(c3noc4cc(F)ccc34)CC1)CCCC2O (stereo not given) [PALIPERIDONE]	0.1513

SMILES	Hit score
CCC(C)n1ncn(-c2ccc(N3CCN(c4ccc(OCC5COC(Cn6cncn6)(c6ccc(Cl)cc6Cl)O5)cc4)CC3)cc2)c1=O (stereo not given) [ITRACONAZOLE]	0.05218
CCOc1cc(N)c(Cl)cc1C(=O)NCC1CN(Cc2ccc(F)cc2)CCO1 (stereo not given) [MOSAPRIDE]	0.2146
CC(=O)OCC(=O)[C@@]12OC(C)(C)O[C@@H]1C[C@H]1[C@@H]3C[C@H](F)C4=CC(=O)C=C[C@]4(C)[C@@]3(F)[C@@H](O)C[C@@]12C [FLUOCINONIDE]	0.1388
O=C(O)CCNC(=O)c1ccc(/N=N/c2ccc(O)c(C(=O)O)c2)cc1 [BALSALAZIDE]	0.1738
O/N=C/c1cc[n+](COC[n+]2ccc(/C=N/O)cc2)cc1 [OBIDOXIME]	0.2635
CCN(CC)CCOc1ccccc1C(=O)CCc1ccccc1 [ETAFENONE]	0.08032
CNCCCN1c2ccccc2CCc2ccccc21 [DESIPRAMINE]	0.1518
Cc1ccsc1C(=CCCN1CCC[C@@H](C(=O)O)C1)c1sccc1C [TIAGABINE]	0.1375
C[n+]1ccccc1C=NO [PRALIDOXIME]	0.02154
O=C1OC(CN2CCOCC2)CN1/N=C/c1ccc([N+](=O)[O-])o1 (stereo not given) [FURALTADONE]	0.1983
C[C@H]1Oc2cc(cnc2N)-c2c(nn(C)c2C#N)CN(C)C(=O)c2ccc(F)cc21 [LORLATINIB]	0.2281
C#CC1(O)CC[C@H]2[C@@H]3CCC4=CC(=O)CC[C@@H]4[C@H]3CC[C@@]21CC (stereo not given in full) [NORGESTREL]	0.2054
Cn1c(=O)c2c(ncn2CCO)n(C)c1=O [ETOFYLLINE]	0.07134
C#C[C@]1(O)CC[C@H]2[C@@H]3CCC4=C/C(=N/O)CC[C@@H]4[C@H]3CC[C@@]21CC [NORELGESTROMIN]	0.07889
CC(C)NCC(O)COc1cccc2[nH]c3ccccc3c12 (stereo not given) [CARAZOLOL]	0.4815
CC(C)NCC(O)c1cc(O)cc(O)c1 (stereo not given) [METAPROTERENOL]	-0.1316
CCCCCCCCCCCCCCCCCCCCCC(=O)Nc1ccn([C@@H]2O[C@H](CO)[C@@H](O)[C@@H]2O)c(=O)n1 [ENOCITABINE]	0.3288
O=C(O)CCCCC1CCSS1 (stereo not drawn) [LIPOIC ACID, ALPHA]	0.1647
CCN(CC)Cc1cc(Nc2ccnc3cc(Cl)ccc23)ccc1O [AMODIAQUINE]	0.1195
OC[C@H]1O[C@@H](n2cnc3c2N=CNC[C@H]3O)C[C@@H]1O [PENTOSTATIN]	0.0932
CCCCCCCCCCCCCCCC(=O)O[C@@H]1[C@@H](O)[C@@H](O)[C@@H]([C@H](NC(=O)[C@@H]2C[C@@H](CCC)CN2C)[C@H](C)Cl)O[C@@H]1SC [CLINDAMYCIN PALMITATE]	0.1881
CCNCC(O)c1cccc(O)c1 (stereo not given) [ETILEFRINE]	-0.03688

Pulled one by one from the list above:
SMILES	Hit score
C[n+]1ccccc1C=NO [PRALIDOXIME]	0.02154
CCC(C)n1ncn(-c2ccc(N3CCN(c4ccc(OCC5COC(Cn6cncn6)(c6ccc(Cl)cc6Cl)O5)cc4)CC3)cc2)c1=O (stereo not given) [ITRACONAZOLE]	0.05218
